Data on 3 substances can be found in patent US12441760 (dated 2025).

Data set [1] can be described thus: general procedure: Fmoc solid-phase peptide synthesis; Gly-O-CTC resin; DIC/HOBt. As to conditions: whole synthesis, scale 1.0 mmol.
Data set [2] is described as follows: general procedure: Fmoc solid-phase peptide synthesis; H-Gly-OCTC resin; DIC/HOBt. Conditions: whole synthesis, scale 1.0 mmol.
Data set [3] can be described thus: general procedure: Fmoc solid-phase peptide synthesis; Fmoc-Lys(Trt-Glu-OtBu)-O-CTC-resin; DIC/HOBt. As to conditions: whole synthesis, scale 0.24 mmol.

On to “Erythropoietin 1-28 Thioester Modified with 2-oxo-5-(17-oxooctadecanamido)hexanedioyl Ile-Ile”, for which the “crude HPLC purity” value in data set [1] (HPLC) is 82%. In data set [1], this substance yielded a crude mass of 3.13 g and a crude yield of 96.4%.
“GLP-1 (7-37) Modified at the Side Chain of Lys^26 with 2-(6-(8-(1-carboxy-2-methylpropylamino)-8-oxooctylthio)hexanamido)pentanedioic Acid”: in data set [2] (HPLC), the “crude purity (method not given)” value worked out at 77% and the “final HPLC purity” value stood at 99.6%. In data set [2], this substance gave an isolated mass of 2.51 g and an isolated yield of 63%.
Take “Partially Protected N^εB29—(H-Glu-OtBu) Des B30 Human Insulin B-Chain”: in data set [3], the crude mass was 1.24 g and the crude yield is given as 83.2%.
